Experimental data: PubChem BioAssay AID504793 (Drosophila RNAi Screening Center, 2011)

- Test: 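Whole-genome screen for parts of the DNA damage checkpoint at G2/M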 (primary screen)
- System: Drosophila S2R+ cells
- Reagents: long dsRNA against Drosophila genes, about 0.25 µg dsRNA per well
- Timing: 4 days of dsRNA, then 4 hours of drug before read-out
- Challenge: doxorubicin 0.5 µM for 4 hours to cause double-strand breaks, in cells also given a low, harmless dose of dsRNA against nbs to sensitise the assay
- Measured: 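Per-well count of mitotic cells stained for phospho-histone H3 after doxorubicin exposure, used as mitotic index; counts are raw and not normalised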
- Reading the numbers: mitotic cells: higher = more cells in mitosis, weaker G2 arrest
- Call rule: 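Genes are called active only when high mitotic counts were reproduced with independent dsRNAs and mitosis was checked for delay without damage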
- Calls: active = confirmed in follow-up tests; inactive = not confirmed
The screen tested about 23,000 reagents; this is an unselected part of those with a known target gene and a result. Of all reagents, 62 (0.27%) were called active. 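Calls come from follow-up tests whose scores are not deposited, so confirmed genes may have low counts here; counts are not normalised per plate.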 Raw values are not corrected between plates. Unmarked entries are inactive. A plus sign joins genes that one reagent is predicted to hit.

| gene | amplicon | mitotic cells, replicate 1 | mitotic cells, replicate 2 |
| --- | --- | --- | --- |
| CG34135 + Nasp | DRSC16397 | 5 | – |
| CG6610 | DRSC10674 | 3 | – |
| CG33969 + fbl | DRSC11886 | 4 | – |
| cv-c (crossveinless c) | DRSC14969 | 7 | – |
| cv-c (crossveinless c) | DRSC14970 | 3 | – |
| cv-c (crossveinless c) | DRSC14972 | 5 | – |
| cv-c (crossveinless c) | DRSC16428 | 3 | – |
| cv-c (crossveinless c) | DRSC23199 | 9 | – |
| cv-c (crossveinless c) | DRSC23809 | 6 | – |
| cv-c (crossveinless c) | DRSC25812 | 10 | – |
| cv-c (crossveinless c) | DRSC27016 | 7 | – |
| Srp54 (Splicing regulatory protein 54) | DRSC03442 | 5 | – |
| CG10474 | DRSC05993 | 2 | – |
| CG15743 | DRSC19709 | 8 | – |
| CG15743 | DRSC26389 | 5 | – |
| CG8560 | DRSC10994 | 5 | – |
| CG8560 | DRSC23854 | 8 | – |
| His3.3A (Histone H3.3A) | DRSC03343 | 10 | – |
| His3.3A (Histone H3.3A) | DRSC25053 | 6 | – |
| Ptp10D (Protein tyrosine phosphatase 10D) | DRSC20272 | 14 | – |
| CG13919 | DRSC08388 | 11 | – |
| CG42383 | DRSC21733 | 9 | – |
| Arp3 (Actin-related protein 3) | DRSC09669 | 8 | – |
| Arp3 (Actin-related protein 3) | DRSC29666 | 6 | – |
| Lsp1beta (Larval serum protein 1 beta) | DRSC00757 | 3 | – |
| Lsp1beta (Larval serum protein 1 beta) | DRSC24940 | 2 | – |
| Lsd-1 (Lipid storage droplet-1) | DRSC14236 | 5 | – |
| CG30460 | DRSC06559 | 2 | – |
| CG30460 | DRSC23115 | 14 | – |
| LysE (Lysozyme E) | DRSC08675 | 6 | – |
| CG31337 | DRSC12981 | 6 | – |
| CG33958 | DRSC06472 | 4 | – |
| CG33958 | DRSC06944 | 6 | – |
| CG33958 | DRSC29635 | 5 | – |
| CG8501 | DRSC07198 | 6 | – |
| CG3345 | DRSC00596 | 6 | – |
| wcd (wicked) | DRSC07051 | 4 | – |
| Atg8a (Autophagy-related 8a) | DRSC18024 | 8 | – |
| Atg8a (Autophagy-related 8a) | DRSC24298 | 6 | – |
| CAH13 (Carbonic anhydrase 13) | DRSC06128 | 5 | – |
| CAH13 (Carbonic anhydrase 13) | DRSC24093 | 8 | – |
| Samuel | DRSC21731 | 10 | – |
| Samuel | DRSC23114 | 7 | – |
| ida (imaginal discs arrested) | DRSC08163 | 101 | – |
| Ugt36A1 (UDP-glycosyltransferase family 36 member A1) | DRSC00748 | 6 | – |
| Ugt36A1 (UDP-glycosyltransferase family 36 member A1) | DRSC29161 | 7 | – |
| Papss (PAPS synthetase) | DRSC11246 | 10 | – |
| Papss (PAPS synthetase) | DRSC27101 | 6 | – |
| WDR79 (WD repeat domain 79) | DRSC03159 | 5 | – |
| CG7742 | DRSC03066 | 6 | – |
| CG6800 | DRSC16119 | 13 | – |
| CG8950 | DRSC07300 | 4 | – |
| CG13685 | DRSC10043 | 3 | – |
| CG13685 | DRSC30064 | 11 | – |
| CG8509 | DRSC20109 | 5 | – |
| prom (prominin) | DRSC04684 | 4 | – |
| prom (prominin) | DRSC21463 | 9 | – |
| prom (prominin) | DRSC22088 | 15 | – |
| prom (prominin) | DRSC24876 | 4 | – |
| prom (prominin) | DRSC26828 | 6 | – |
| prom (prominin) | DRSC27557 | 8 | – |
| RpS28b (Ribosomal protein S28b) | DRSC18258 | 7 | – |
| RpS28b (Ribosomal protein S28b) | DRSC29909 | 8 | – |
| CG32694 | DRSC17844 | 9 | – |
| CG32694 | DRSC17855 | 4 | – |
| CG32694 | DRSC22670 | 9 | – |
| CG32694 | DRSC25731 | 4 | – |
| RnrL (Ribonucleoside diphosphate reductase large subunit) | DRSC03413 | 3 | – |
| dpp (decapentaplegic) | DRSC00118 | 6 | – |
| dpp (decapentaplegic) | DRSC00121 | 2 | – |
| dpp (decapentaplegic) | DRSC00813 | 3 | – |
| dpp (decapentaplegic) | DRSC26853 | 7 | – |
| St4 (Sulfotransferase 4) | DRSC07008 | 3 | – |
| CG11334 | DRSC14066 | 8 | – |
| CG11334 | DRSC14302 | 3 | – |
| CG14823 | DRSC10194 | 8 | – |
| Nplp4 (Neuropeptide-like precursor 4) | DRSC00391 | 11 | – |
| CG9886 | DRSC00732 | 5 | – |
| CG9886 | DRSC26380 | 4 | – |
| Dgat2 (Diacylglycerol O-acyltransferase 2) | DRSC06803 | 7 | – |
| CG4462 | DRSC15583 | 3 | – |
| CG4462 | DRSC25650 | 9 | – |
| Srp14 (Signal recognition particle 14) | DRSC15797 | 17 | – |
| CG15472 | DRSC18055 | 10 | – |
| CCHa2 (CCHamide-2) | DRSC14835 | 10 | 11 |
| caup (caupolican) | DRSC23050 | 9 | – |
| CG9586 | DRSC03270 | 5 | – |
| CG9586 | DRSC30001 | 10 | – |
| Src64B (Src oncogene at 64B) | DRSC08700 | 4 | – |
| Src64B (Src oncogene at 64B) | DRSC36619 | 5 | – |
| CG14418 | DRSC23051 | 15 | – |
| Tap42 (Two A-associated protein of 42kDa) | DRSC02967 | 5 | – |
| Tap42 (Two A-associated protein of 42kDa) | DRSC24168 | 9 | – |
| dx (deltex) | DRSC18767 | 8 | – |
| dx (deltex) | DRSC24880 | 8 | – |
| nht (no hitter) | DRSC01976 | 11 | 14 |
| Dic1 | DRSC14125 | 6 | – |
| caz (cabeza) | DRSC23280 | 6 | – |
| caz (cabeza) | DRSC29957 | 9 | – |
| HisCl1 (Histamine-gated chloride channel subunit 1) | DRSC14945 | 5 | – |
| CG8306 | DRSC07141 | 4 | – |
| CG8306 | DRSC24656 | 7 | – |
| Flad2 (Flavin adenine dinucleotide synthetase 2) | DRSC02531 | 6 | – |
| Flad2 (Flavin adenine dinucleotide synthetase 2) | DRSC27627 | 7 | – |
| Clk (Clock) | DRSC11117 | 4 | – |
| CG3581 | DRSC15499 | 6 | – |
| CG3199 | DRSC15467 | 4 | – |
| CG3199 | DRSC30060 | 1 | – |
| gkt (glaikit) | DRSC00821 | 3 | – |
| CG15253 | DRSC01871 | 5 | – |
| CG15253 | DRSC26826 | 12 | – |

Look-ups from the list:
Result of Dic1 [DRSC14125] under “mitotic cells, replicate 1”: 6
Result of Lsd-1 (Lipid storage droplet-1) [DRSC14236] under “mitotic cells, replicate 1”: 5
RpS28b (Ribosomal protein S28b) [DRSC18258], mitotic cells, replicate 1 = 7
Under “mitotic cells, replicate 1”, CG9886 [DRSC26380] has 4
Result for dpp (decapentaplegic) [DRSC26853] in “mitotic cells, replicate 1”: 7
Value of CG8950 [DRSC07300] under “mitotic cells, replicate 1”: 4
